# Laboratory results as given in paper PMC7463354.
# Legend:
# [1] = molecular target: T1, r.LIN28A-Δ14 (Homo sapiens) (UniProt Q9H9Z2); test: SPR; conditions: RNA captured on SA chip, Methods call it pre-let-7g, Results and legend preE-let-7g; SPR: PBS, 0.05% Tween-20, 5% DMSO, pH 7.4, 25 °C; recombinant protein; residues 15-209; label: 5'-biotin
# T1 sequence (looked up): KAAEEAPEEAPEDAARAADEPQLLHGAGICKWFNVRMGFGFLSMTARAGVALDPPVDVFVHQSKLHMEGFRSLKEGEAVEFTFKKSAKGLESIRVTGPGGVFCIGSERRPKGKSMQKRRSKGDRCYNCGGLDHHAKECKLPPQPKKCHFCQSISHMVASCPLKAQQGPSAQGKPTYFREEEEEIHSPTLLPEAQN
# [2] = molecular target: T1, r.LIN28A-Δ14 (Homo sapiens); test: EMSA; conditions: 5 nM probe, EMSA: 20 mM Tris/HCl pH 7.6, 5 mM MgCl2, 100 mM NaCl, 10% glycerol, 2 mM DTT, 40 U RNase inhibitor, 60 min 25 °C, recombinant protein, residues 15-209, label: 5'-biotin
Sequence,Kd [1],Kd ([2]; Kd as printed is below the probe concentration),binding result ([2]; less bound than SUMO1-LIN28A-Δ14)
UGAGGGUCUAUGAUACCACCCGGUACAGGAGAUAA [preE-let-7g],6.7 nM,0.12 nM,–
UUAGGGUCACACCCACCACUGGGAGAUAA [preE-let-7a-1],–,–,binds

# Construct, isoform or probe ends are uncertain for at least one entry. Protein sequences can lack the tags named with them.
